No constants are given. Whether binding was seen depends on the method and setting. Binding seen in cells or lysates may run through a third protein.
Target: Aβ1–42 peptide (UniProt P05067)
Experiment: co-IP; Aβ immunoprecipitated with an anti-Aβ(17-24) antibody from HT22 cells pretreated with Aβ; blot for FGFR3; only the target purified

Protein sequences, listed by entry. Tags and fused reporters are not part of them. Residues count along the entry.
UniProt P05067, residues 672-713: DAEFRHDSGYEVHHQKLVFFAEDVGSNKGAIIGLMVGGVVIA
UniProt Q61851, residues 21-801: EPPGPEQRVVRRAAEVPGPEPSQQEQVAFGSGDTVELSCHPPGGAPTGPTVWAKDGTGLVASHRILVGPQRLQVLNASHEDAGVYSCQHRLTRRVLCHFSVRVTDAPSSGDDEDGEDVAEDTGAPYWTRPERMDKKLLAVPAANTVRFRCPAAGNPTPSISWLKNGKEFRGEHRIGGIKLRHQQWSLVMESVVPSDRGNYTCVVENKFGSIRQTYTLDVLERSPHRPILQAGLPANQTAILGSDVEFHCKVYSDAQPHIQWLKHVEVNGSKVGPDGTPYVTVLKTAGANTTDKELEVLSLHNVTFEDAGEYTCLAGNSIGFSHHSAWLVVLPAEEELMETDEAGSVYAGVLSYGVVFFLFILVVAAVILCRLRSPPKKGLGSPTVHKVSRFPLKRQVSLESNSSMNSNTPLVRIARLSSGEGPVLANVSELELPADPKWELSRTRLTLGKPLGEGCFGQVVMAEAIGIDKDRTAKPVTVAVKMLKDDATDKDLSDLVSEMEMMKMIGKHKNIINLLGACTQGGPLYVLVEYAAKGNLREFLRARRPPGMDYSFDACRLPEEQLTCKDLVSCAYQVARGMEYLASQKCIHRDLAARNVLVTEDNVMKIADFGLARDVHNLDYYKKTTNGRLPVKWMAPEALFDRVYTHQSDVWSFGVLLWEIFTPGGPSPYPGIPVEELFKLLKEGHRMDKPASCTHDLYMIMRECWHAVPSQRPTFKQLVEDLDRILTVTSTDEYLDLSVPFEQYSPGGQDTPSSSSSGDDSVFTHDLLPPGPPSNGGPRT

fibroblast growth factor receptor 3 (FGFR3), endogenous in mouse neuronal cells (from UniProt Q61851 21-801)
binding: no binding

— paper PMC11297141
